No constants are given. Whether binding was seen depends on the method and setting. For part of these data: A result given as binding can be weak or reduced; the word gives no strength. For part of these data: Where a sequence is shown, tags or fusion partners need not be part of it.
Columns and labels:
[1] = target: 6×His-SUMO-TcCaNA2 (recombinant Trypanosoma cruzi calcineurin catalytic subunit A2) (Trypanosoma cruzi (CL strain)); assay: far-Western, overlay or dot blot; 1 µg 6×His-SUMO-TcCaNA2 resolved on 10% SDS-PAGE, transferred to PVDF, denatured and renatured with guanidine-HCl (6, 3, 1, 0.1, 0 M), blocked with PBS, 0.5% Tween 20, 5% skim milk, incubated with 10 µg GST-TcCaNB; detected with polyclonal anti-GST-TcCaNB antibody, HRP-conjugated secondary antibody and DAB; both purified
[2] = target: native TcCaNA2 (calcineurin catalytic subunit A2 in Trypanosoma cruzi epimastigotes) (Trypanosoma cruzi (endogenous in CL strain epimastigotes)); assay: SDS-PAGE and Western blot of parasite extracts (size of the band, dissociation by urea); total extracts of 1×10^7 epimastigotes in Laemmli buffer, with urea (2, 4 and 6 M), overnight at 4°C; 10% SDS-PAGE, PVDF, anti-TcCaNA2 antibody; band of about 45 kDa
[3] = target: native TcCaNA2 (calcineurin catalytic subunit A2 in Trypanosoma cruzi epimastigotes) (Trypanosoma cruzi (endogenous in CL strain epimastigotes)); assay: SDS-PAGE and Western blot of parasite extracts (size of the band, dissociation by urea); total extracts of 1×10^7 epimastigotes in Laemmli buffer, without urea, overnight at 4°C; 10% SDS-PAGE, PVDF, anti-TcCaNA2 antibody; band of approximately 63.5 kDa

B1: GST-TcCaNB (recombinant Trypanosoma cruzi calcineurin regulatory subunit B tagged with GST) (protein, UniProt Q5V9N6 1-176)
chain: MGEGSSFTPEEMRQLREATAFSEAQIVRLQKRFATLAQGGRGVLTAEALSSISSVASNPLLGRVLAVLDTSGDGKIDFMTFAKALAVFSPQADKRERLRFTFKMYDVDGDGKISNKDLFETLTIMVGTNLTGVQLQQIVDKTFIEVDLNRDGYITFEEFEKLSLLNNFGDRLSLSI
In the case of B1, the binding [1] is reported as “binds”.

B2: native TcCaNB (calcineurin regulatory subunit B in Trypanosoma cruzi epimastigotes) (protein, UniProt Q5V9N6 1-176)
chain: B1 chain
In the case of B2, the binding [2] is reported as “no binding (only with 6 M urea)” and the binding [3] is reported as “binds”.
